These are yes or no findings as the source states them, for the method shown. In cells and extracts the contact can be indirect. Some entries that bind do so weakly or less than the wild type. Where a sequence is shown, tags or fusion partners need not be part of it.

Sequences of proteins named here, by UniProt entry; tags and fusion partners are left off.
UniProt Q8VI67: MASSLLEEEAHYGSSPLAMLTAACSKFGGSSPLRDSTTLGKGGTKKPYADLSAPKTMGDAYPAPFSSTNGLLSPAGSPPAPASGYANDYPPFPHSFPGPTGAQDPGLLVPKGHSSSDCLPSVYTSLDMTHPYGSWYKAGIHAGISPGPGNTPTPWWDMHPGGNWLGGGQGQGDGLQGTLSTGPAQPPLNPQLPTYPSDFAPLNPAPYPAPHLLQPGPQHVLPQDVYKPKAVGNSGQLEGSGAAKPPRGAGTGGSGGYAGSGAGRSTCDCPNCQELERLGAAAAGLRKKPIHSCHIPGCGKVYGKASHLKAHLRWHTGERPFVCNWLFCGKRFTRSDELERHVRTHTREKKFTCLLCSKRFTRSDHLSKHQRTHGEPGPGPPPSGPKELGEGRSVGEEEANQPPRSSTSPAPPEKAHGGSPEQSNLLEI

These results are taken from publication PMC10607737.

Assay [1] concerns the target T1, Myc-USP17 wild type (UniProt Q6R6M4).
T1 sequence: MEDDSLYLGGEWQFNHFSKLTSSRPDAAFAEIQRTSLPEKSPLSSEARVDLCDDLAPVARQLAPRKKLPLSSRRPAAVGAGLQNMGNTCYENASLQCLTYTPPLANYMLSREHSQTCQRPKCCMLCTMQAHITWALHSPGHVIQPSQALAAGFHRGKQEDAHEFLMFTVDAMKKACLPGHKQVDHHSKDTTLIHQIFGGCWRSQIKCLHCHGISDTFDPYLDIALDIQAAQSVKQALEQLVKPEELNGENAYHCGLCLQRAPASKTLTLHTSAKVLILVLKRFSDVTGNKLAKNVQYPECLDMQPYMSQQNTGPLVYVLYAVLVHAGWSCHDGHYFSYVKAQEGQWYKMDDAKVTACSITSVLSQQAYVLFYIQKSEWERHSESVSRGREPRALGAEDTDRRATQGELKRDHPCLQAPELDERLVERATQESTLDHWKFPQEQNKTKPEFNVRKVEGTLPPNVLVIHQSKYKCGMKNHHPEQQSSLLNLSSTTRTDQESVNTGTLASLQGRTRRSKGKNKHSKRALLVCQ
The assay can be described thus: co-IP; HEK 293 cells co-transfected with HA-Osx and Myc-USP17; whole cell lysates incubated with appropriate antibodies and Protein A Sepharose CL-4B; detected by IB; lysis buffer 5 mM HEPES pH 7.5, 150 mM NaCl, 1% NP-40, 0.25% sodium deoxycholate.

The target in assay [2] is T2, GST-USP17 (UniProt Q6R6M4).
T2 sequence: T1 sequence
The assay can be described thus: pull-down; GST or GST-USP17 on glutathione-Sepharose beads incubated with whole-cell lysate of HEK 293 cells transfected with HA-Osx, 4 °C; washed with 20 mM HEPES pH 7.4, 120 mM NaCl, 10% glycerol, 2 mM EDTA; detected by IB; only the target purified.

On to “HA-Osx (Osterix) (from UniProt Q8VI67 1-428)”, for which the binding entry in assay [1] and in assay [2] was “binds” each time.
